Data as given in PubChem BioAssay AID1159590 (NIAID, 2016)
Aim: 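Which core TLR signalling genes NF-kB activation by Pam3CSK4 depends on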. Cells: mouse RAW264.7 macrophage reporter cells expressing GFP-p65 and a Tnf promoter-mCherry. Reagent: single siRNA against mouse genes. Timing: 48 to 72 hours after siRNA transfection, then 40 minutes of ligand. Conditions: Pam3CSK4 (TLR2/1 agonist) for 40 minutes before fixation; dose not given. Measured: 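GFP-p65 nuclear to cytoplasmic intensity ratio from imaging, normalised per plate by median and MAD, given as robust z against negative controls, mean of replicates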. Direction: p65 nuclear entry z-score: higher = more p65 moved into nuclei than in negative-control wells. Call rule: In these data the active calls have p65 nuclear entry z-score, replicate mean at about -1.5 or lower, or at about 1.5 or higher. Calls: active = strong change, up or down; inactive = little change.
The whole screen tested 756 reagents; shown is a part drawn at random. Of all reagents, 128 (17%) got an active call. 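Calls are two-sided: both reduced and increased p65 nuclear entry count as active.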 Unmarked entries are inactive. Reagents against one gene are numbered here. Not stated in the record: the amount of reagent.

| Gene | reagent | p65 nuclear entry z-score, replicate mean |
| --- | --- | --- |
| Dusp1 (GeneID 19252) | 1 | 0.375 |
| Dusp1 (GeneID 19252) | 2 | 0.0217 |
| Dusp1 (GeneID 19252) | 3 | 0.0326 |
| Dusp1 (GeneID 19252) | 4 | 1.24 |
| Dusp1 (GeneID 19252) | 5 | -0.978 |
| Dusp1 (GeneID 19252) | 6 | -0.858 |
| Sp1 (GeneID 20683) | 1 | -0.771 |
| Sp1 (GeneID 20683) | 2 | -1.38 |
| Sp1 (GeneID 20683) | 3 | -2.34 (active) |
| Sp1 (GeneID 20683) | 4 | -1.22 |
| Sp1 (GeneID 20683) | 5 | 2.58 (active) |
| Sp1 (GeneID 20683) | 6 | -1.23 |
| Rel (GeneID 19696) | 1 | 0.0672 |
| Rel (GeneID 19696) | 2 | -0.264 |
| Rel (GeneID 19696) | 3 | 0.893 |
| Rel (GeneID 19696) | 4 | 1.17 |
| Rel (GeneID 19696) | 5 | -1.3 |
| Rel (GeneID 19696) | 6 | -0.287 |
| Ifnar1 (GeneID 15975) | 1 | -0.337 |
| Ifnar1 (GeneID 15975) | 2 | 1.54 (active) |
| Ifnar1 (GeneID 15975) | 3 | -1.34 |
| Ifnar1 (GeneID 15975) | 4 | -0.776 |
| Ifnar1 (GeneID 15975) | 5 | -0.181 |
| Ifnar1 (GeneID 15975) | 6 | -1.07 |
| Akt3 (GeneID 23797) | 1 | 0.573 |
| Akt3 (GeneID 23797) | 2 | -0.13 |
| Akt3 (GeneID 23797) | 3 | -0.835 |
| Akt3 (GeneID 23797) | 4 | -1.49 |
| Akt3 (GeneID 23797) | 5 | -0.707 |
| Akt3 (GeneID 23797) | 6 | -0.869 |
| Tlr8 (GeneID 170744) | 1 | -0.686 |
| Tlr8 (GeneID 170744) | 2 | 0.409 |
| Tlr8 (GeneID 170744) | 3 | -0.082 |
| Tlr8 (GeneID 170744) | 4 | 0.0731 |
| Tlr8 (GeneID 170744) | 5 | -1.3 |
| Tlr8 (GeneID 170744) | 6 | 1.78 (active) |
| Map2k4 (GeneID 26398) | 1 | 1 |
| Map2k4 (GeneID 26398) | 2 | 0.499 |
| Map2k4 (GeneID 26398) | 3 | 0.184 |
| Map2k4 (GeneID 26398) | 4 | -1.07 |
| Map2k4 (GeneID 26398) | 5 | 0.414 |
| Map2k4 (GeneID 26398) | 6 | -0.893 |
| Akt1 (GeneID 11651) | 1 | -1.11 |
| Akt1 (GeneID 11651) | 2 | -2.14 (active) |
| Akt1 (GeneID 11651) | 3 | -0.135 |
| Akt1 (GeneID 11651) | 4 | 4.02 (active) |
| Akt1 (GeneID 11651) | 5 | -1.16 |
| Akt1 (GeneID 11651) | 6 | -0.477 |
| Irf9 (GeneID 16391) | 1 | -0.274 |
| Irf9 (GeneID 16391) | 2 | -1.77 (active) |
| Irf9 (GeneID 16391) | 3 | -0.0382 |
| Irf9 (GeneID 16391) | 4 | -0.805 |
| Irf9 (GeneID 16391) | 5 | -1.85 (active) |
| Irf9 (GeneID 16391) | 6 | -1.42 |
| Mapk9 (GeneID 26420) | 1 | 0.576 |
| Mapk9 (GeneID 26420) | 2 | 0.753 |
| Mapk9 (GeneID 26420) | 3 | 0.332 |
| Mapk9 (GeneID 26420) | 4 | 0.0097 |
| Mapk9 (GeneID 26420) | 5 | -1.12 |
| Mapk9 (GeneID 26420) | 6 | -1.07 |
| Rela (GeneID 19697) | 1 | -1.23 |
| Rela (GeneID 19697) | 2 | -0.305 |
| Rela (GeneID 19697) | 3 | -0.354 |
| Rela (GeneID 19697) | 4 | 2.05 (active) |
| Rela (GeneID 19697) | 5 | -1.22 |
| Rela (GeneID 19697) | 6 | -0.26 |
| Nfkbia (GeneID 18035) | 1 | -1.77 (active) |
| Nfkbia (GeneID 18035) | 2 | -3.11 (active) |
| Nfkbia (GeneID 18035) | 3 | -1.62 (active) |
| Nfkbia (GeneID 18035) | 4 | 0.0381 |
| Nfkbia (GeneID 18035) | 5 | -1.5 |
| Nfkbia (GeneID 18035) | 6 | -0.952 |
| Itgam (GeneID 16409) | 1 | 0.423 |
| Itgam (GeneID 16409) | 2 | -0.408 |
| Itgam (GeneID 16409) | 3 | -1.55 (active) |
| Itgam (GeneID 16409) | 4 | 0.724 |
| Itgam (GeneID 16409) | 5 | -1.11 |
| Itgam (GeneID 16409) | 6 | -0.929 |
| Pik3cb (GeneID 74769) | 1 | 0.976 |
| Pik3cb (GeneID 74769) | 2 | -1.71 (active) |
| Pik3cb (GeneID 74769) | 3 | -1.12 |
| Pik3cb (GeneID 74769) | 4 | 0.451 |
| Pik3cb (GeneID 74769) | 5 | 0.988 |
| Pik3cb (GeneID 74769) | 6 | -0.307 |
| Ube2v1 (GeneID 66589) | 1 | 1.45 |
| Ube2v1 (GeneID 66589) | 2 | -0.685 |
| Ube2v1 (GeneID 66589) | 3 | -0.0773 |
| Ube2v1 (GeneID 66589) | 4 | -1.5 |
| Ube2v1 (GeneID 66589) | 5 | -0.308 |
| Ube2v1 (GeneID 66589) | 6 | 1.89 (active) |
| Map3k8 (GeneID 26410) | 1 | 0.223 |
| Map3k8 (GeneID 26410) | 2 | 1.26 |
| Map3k8 (GeneID 26410) | 3 | -0.19 |
| Map3k8 (GeneID 26410) | 4 | -0.0618 |
| Map3k8 (GeneID 26410) | 5 | -0.251 |
| Map3k8 (GeneID 26410) | 6 | 0.144 |
| Pik3ca (GeneID 18706) | 1 | -0.504 |
| Pik3ca (GeneID 18706) | 2 | 0.019 |
| Pik3ca (GeneID 18706) | 3 | 0.26 |
| Pik3ca (GeneID 18706) | 4 | -1.57 (active) |
| Pik3ca (GeneID 18706) | 5 | -0.644 |
| Pik3ca (GeneID 18706) | 6 | -0.675 |
| Ptpn6 (GeneID 15170) | 1 | -0.763 |
| Ptpn6 (GeneID 15170) | 2 | -0.89 |
| Ptpn6 (GeneID 15170) | 3 | -3.11 (active) |
| Ptpn6 (GeneID 15170) | 4 | 0.389 |
| Ptpn6 (GeneID 15170) | 5 | 0.749 |
| Ptpn6 (GeneID 15170) | 6 | 2.96 (active) |
| Traf6 (GeneID 22034) | 1 | -2.5 (active) |
| Traf6 (GeneID 22034) | 2 | -2.74 (active) |
| Traf6 (GeneID 22034) | 3 | -0.848 |
| Traf6 (GeneID 22034) | 4 | -1.45 |
| Traf6 (GeneID 22034) | 5 | -1.7 (active) |
| Traf6 (GeneID 22034) | 6 | -0.964 |
